# Experimental data: PMC11237798
# No constants are given. Whether binding was seen depends on the method and setting. In cells and extracts the contact can be indirect. Here binding means that the protein was enriched with, or labelled near, the bait; the list need not be complete. Sequences can lack the tags named with a protein.
# T1: Flag tagged PA0034 (two-component response regulator) (Pseudomonas aeruginosa PAO1) (UniProt P24908)
# T1 sequence: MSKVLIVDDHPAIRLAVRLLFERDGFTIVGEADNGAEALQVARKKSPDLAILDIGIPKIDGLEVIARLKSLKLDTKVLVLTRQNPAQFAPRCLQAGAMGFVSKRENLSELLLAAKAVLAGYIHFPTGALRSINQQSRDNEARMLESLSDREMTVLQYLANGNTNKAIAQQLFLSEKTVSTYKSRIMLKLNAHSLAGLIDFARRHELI
# Target: T1, Flag tagged PA0034 (two-component response regulator) (Pseudomonas aeruginosa PAO1)
# Experiment: affinity purification with mass spectrometry; Flag-PA0034 expressed in the ΔPA0034 strain (empty vector strain as control); lysate with anti-Flag magnetic beads overnight at 4°C, washed thrice with PBST; gel bands analysed by LC-MS/MS
molecule,measurement,value
"LadS (histidine kinase), endogenous (from UniProt Q9HX42) (enzyme)",binding,binds
"PA1458 (histidine kinase), endogenous (from UniProt G3XCT6) (enzyme)",binding,binds
"PhoQ (histidine kinase), endogenous (enzyme, UniProt Q9I4F8 34-448) IALENTIEQRLAADVATLVSAARVEKGRLVMPEHLPVEEFNLPEAKVLGYIYDQNGDLLWRSTSAADESINYTPRYDGRGNEFHTTRDAKGEEFFVFDVEIDLLRGKQAAYSIVTMQSVSEFESLLKGFREQLYLWLGGALLVLLGLLWLGLTWGFRAMRGLSSELDQIESGERESLSEEHPRELLRLTHSLNRLLRSEHKQRERYRHSLGDLAHSLKTPLAVLQGVGDQLAEEPGNREQVRVLQGQIERMSQQIGYQLQRASLRKSGLVRHREQLAPLVETLCDALDKVYRDKRVSLQRDFSPSFSVPVERGALLELLGNLLENAYRLCLGRVRVGARLGPGYSELWVEDDGPGVPAEQRARIIRRGERADTQHPGQGIGLAVALDIIESYDGELSLDDSELGGACFRIRFATV",binding,binds
